This is an account of results in patent publication US20180119166A1.

Results are given in words; binding and its absence hold for the method and conditions named. Binding seen in cells or lysates may run through a third protein. Some results given as binding are weak or reduced against the parent protein; the word gives no strength. Where a sequence is shown, tags or fusion partners need not be part of it.

The target in assay [1] is T1, 6x-histidine-fused LOS4 (LOS4-His) (Arabidopsis) (UniProt Q93ZG7).
T1 sequence: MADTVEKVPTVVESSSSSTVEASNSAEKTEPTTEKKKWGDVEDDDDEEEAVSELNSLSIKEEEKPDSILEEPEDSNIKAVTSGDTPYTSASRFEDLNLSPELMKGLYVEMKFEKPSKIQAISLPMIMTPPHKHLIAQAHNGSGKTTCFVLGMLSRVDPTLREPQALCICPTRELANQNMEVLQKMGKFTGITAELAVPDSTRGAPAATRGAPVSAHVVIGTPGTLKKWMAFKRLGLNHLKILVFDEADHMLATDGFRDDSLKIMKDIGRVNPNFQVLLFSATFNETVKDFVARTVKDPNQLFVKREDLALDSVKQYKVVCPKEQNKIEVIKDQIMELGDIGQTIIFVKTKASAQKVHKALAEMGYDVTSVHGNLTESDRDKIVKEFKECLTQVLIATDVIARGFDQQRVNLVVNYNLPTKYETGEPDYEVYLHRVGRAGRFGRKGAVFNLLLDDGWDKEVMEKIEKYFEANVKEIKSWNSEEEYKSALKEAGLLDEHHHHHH
The assay can be described thus: in vitro pull-down (FIG. 3E), told again in the discussion.

Assay [2] concerns the target T1, 6x-histidine-fused LOS4 (LOS4-His) (Arabidopsis). The assay is described as follows: in vitro pull-down on amylose resin, Coomassie blue staining.
Assay [3] has the same target. The assay is described as follows: in vitro pull-down on nickel resin or amylose resin, Coomassie blue staining.
Assay [4] concerns the target T2, Myc-fused LOS4 (LOS4-Myc) (Arabidopsis) (UniProt Q93ZG7).
T2 sequence (looked up): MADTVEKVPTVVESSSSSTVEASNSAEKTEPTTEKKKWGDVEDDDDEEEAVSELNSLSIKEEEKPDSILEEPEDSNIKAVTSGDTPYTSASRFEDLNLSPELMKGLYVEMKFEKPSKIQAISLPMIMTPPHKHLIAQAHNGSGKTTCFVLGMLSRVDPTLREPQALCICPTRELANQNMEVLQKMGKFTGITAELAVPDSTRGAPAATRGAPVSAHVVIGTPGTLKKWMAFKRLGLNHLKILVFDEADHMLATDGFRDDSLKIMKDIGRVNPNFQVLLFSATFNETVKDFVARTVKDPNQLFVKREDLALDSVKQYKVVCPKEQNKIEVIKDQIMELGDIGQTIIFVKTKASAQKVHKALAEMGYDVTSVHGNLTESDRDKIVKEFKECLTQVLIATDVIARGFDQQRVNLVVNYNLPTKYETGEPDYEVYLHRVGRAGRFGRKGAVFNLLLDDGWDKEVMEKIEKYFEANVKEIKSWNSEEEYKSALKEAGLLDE
The assay can be described thus: co-immunoprecipitation, anti-Flag IP, anti-Myc detection.

In assay [5] the target is T2, Myc-fused LOS4 (LOS4-Myc) (Arabidopsis). The assay is described as follows: co-immunoprecipitation from N. benthamiana leaf extracts, anti-Flag IP, anti-Myc western blot. On the technique in general: Immunoblotting shows a protein as a band on a membrane.

B1: maltose-binding protein (MBP)-fused Gle1 (MBP-Gle1) (protein, not shown: large carriers)
chain: MGIVLEPPCPKSVDGISIDPEPNWNFESLVAEIASVEKKLNGFSMYPQPITNTTLRMGRRGGGFVMHVSEDEMESDEGEESDDEEEEEDHSQICTAGKRFACDELYLSDESDEEFDHEPEYMMNKLGLAESALYEVINDHQTEIKDDIRNQVSVVETEIMNEIETSLSAIARVEKYSETRKEVERKLDLQYQRKVAEALDTHLTAVQREHKIKSQIEERKIRSEEAQEEARRKERAHQEEKIRQEKARAEAQMLAKIRAEEEKKEVERKAAREVAEKEVADRKAAEQKLAEQKAVIESVTGSSATSNAQAGGNSIRAAESALILENHRLKKLEELETTNQSLKSRSNENFSSFEKHIGRVIRQISGTKDSVSGKINDIVKIFKDPRCPVSISIAAFAKKMVTTKEKPNPFACSYVIVYINSQFPQVMDILLAEFHKACIYTVPKHIVNSQSAWDSDAYERLDSIMRLYGALVQTDIRVGNATNVHGIEHGWAWLARFLNKIPANRATATALNSFLQTAGFGLHQRYKSQFLKVVNVVREHFLQKLRAKKDTSDLLVIIAEITAYLDDRMYLKEPEGRAMKTTSTLSSELTAELNQPNYNQNYQRNDYRNYY
For the molecule B1, the binding entry in assay [1], in assay [2] and in assay [3] was “binds” each time.

B2: Flag-fused Gle1 (Flag-Gle1) (protein, not shown: small tags and cut ends)
chain: MGIVLEPPCPKSVDGISIDPEPNWNFESLVAEIASVEKKLNGFSMYPQPITNTTLRMGRRGGGFVMHVSEDEMESDEGEESDDEEEEEDHSQICTAGKRFACDELYLSDESDEEFDHEPEYMMNKLGLAESALYEVINDHQTEIKDDIRNQVSVVETEIMNEIETSLSAIARVEKYSETRKEVERKLDLQYQRKVAEALDTHLTAVQREHKIKSQIEERKIRSEEAQEEARRKERAHQEEKIRQEKARAEAQMLAKIRAEEEKKEVERKAAREVAEKEVADRKAAEQKLAEQKAVIESVTGSSATSNAQAGGNSIRAAESALILENHRLKKLEELETTNQSLKSRSNENFSSFEKHIGRVIRQISGTKDSVSGKINDIVKIFKDPRCPVSISIAAFAKKMVTTKEKPNPFACSYVIVYINSQFPQVMDILLAEFHKACIYTVPKHIVNSQSAWDSDAYERLDSIMRLYGALVQTDIRVGNATNVHGIEHGWAWLARFLNKIPANRATATALNSFLQTAGFGLHQRYKSQFLKVVNVVREHFLQKLRAKKDTSDLLVIIAEITAYLDDRMYLKEPEGRAMKTTSTLSSELTAELNQPNYNQNYQRNDYRNYY
On to B2, for which the binding result in assay [4] and in assay [5] was “binds” throughout.
